In US20230192797A1 (published 2023):
Results are given in words; binding and its absence hold for the method and conditions named. Some entries that bind do so weakly or less than the wild type.

Sequences of proteins named here, by UniProt entry; tags and fusion partners are left off. Residues count along the entry.
UniProt Q9NZQ7, residues 19-290: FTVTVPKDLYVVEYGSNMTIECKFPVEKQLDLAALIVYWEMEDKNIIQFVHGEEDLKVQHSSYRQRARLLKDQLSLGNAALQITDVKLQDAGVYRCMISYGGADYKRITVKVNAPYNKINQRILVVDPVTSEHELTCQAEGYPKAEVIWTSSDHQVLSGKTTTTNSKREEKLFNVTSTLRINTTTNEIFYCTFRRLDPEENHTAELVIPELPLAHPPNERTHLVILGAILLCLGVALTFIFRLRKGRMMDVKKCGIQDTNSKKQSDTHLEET

Target: PD-L1 on the surface of CHO-PD-L1 cells (UniProt Q9NZQ7 19-290, limits assumed)
Assay: flow cytometry (FACS) on CHO-PD-L1 cells

binding: binds
B1: 794-h1-71 (antibody, human IgG1, kappa, V domains shown)
VH: QVQLQQSGPGLVKPSQTLSLTCAVSGDSITSGYWNWIRKFPSRGLEYMGYISYSGSTYYNPFLKSRISINRDTSKNQYYLQLNSVTPEDTAVYYCAKMGDWLAWFAYWGQGTLVTVSS
VL: EIVMTQSPPTLSLSPGERVTLSCKSSQSLLYSSNQKNSLAWYQQKPGQAPRLLIYWASTRESGIPARFSGSGSGTDFTLTISSLQPEDFAVYYCQQYYGYPYTFGQGTKLEIKR
notes: also called humanized PD-L1 antibody
